In PubChem BioAssay (Tox21):
Several values for one entry are separate records, joined by “and”; a condition that tells them apart may be missing. Equal values may be shown once. Inconclusive results, whose numbers are uncertain, are shown with a selection of clear calls. Potencies of inconclusive entries are doubtful fits and often do not repeat. Activity calls are given as the source filed them. Unless noted, calls come from the whole dose curve.

Chains of the proteins cited; added tags and fusions are not shown.
UniProt P14416, whole entry, looked up: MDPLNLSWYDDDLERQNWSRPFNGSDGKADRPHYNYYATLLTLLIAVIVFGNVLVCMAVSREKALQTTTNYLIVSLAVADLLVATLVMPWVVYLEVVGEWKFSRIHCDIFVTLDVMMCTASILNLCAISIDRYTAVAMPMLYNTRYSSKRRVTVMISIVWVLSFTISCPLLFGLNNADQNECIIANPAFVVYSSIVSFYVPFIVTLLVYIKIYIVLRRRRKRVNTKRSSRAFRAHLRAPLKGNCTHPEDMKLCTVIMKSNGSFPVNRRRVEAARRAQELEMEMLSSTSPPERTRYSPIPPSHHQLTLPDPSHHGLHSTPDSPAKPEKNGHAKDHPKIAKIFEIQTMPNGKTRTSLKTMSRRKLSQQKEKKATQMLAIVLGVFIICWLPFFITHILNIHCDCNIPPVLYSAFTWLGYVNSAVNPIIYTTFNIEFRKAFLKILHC

Target: D(2) dopamine receptor (Homo sapiens) (UniProt P14416)
Test: Dopamine D2 receptor (DRD2) small molecule agonists, cell-based qHTS assay (AID 1963594); note: nearly all actives have a fitted effect of over 35% in size
Details: HEK293-DRD2 cAMP HTRF, agonist mode, 30 min; activation: at 92.4 µM (top of the series) unless noted
Method in brief: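 HEK293 cells stably expressing human DRD2, pre-treated with PDE inhibitor Ro20-1724 (0.1 mM final) and compound 10 min at room temperature, then stimulated with NKH477 (200nM […]) for 30 min. cAMP read by HTRF (665/620 nm).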
% is set by controls: 0 for no effect and ±100 for the full control effect; potency is the fitted concentration of half-maximal effect.

Structure (SMILES) | Potency | activation
C[C@@H]1O[C@@H](O[C@@H]2[C@@H](O)[C@H](OCCc3ccc(O)c(O)c3)O[C@H](CO[C@@H]3O[C@H](CO)[C@@H](O)[C@H](O)[C@H]3O)[C@H]2OC(=O)/C=C/c2ccc(O)c(O)c2)[C@H](O)[C@H](O)[C@H]1O | inconclusive: 67.8 µM [falling, partial curve, poor fit] | –
C/C(=C(/OCCOc1ccc(Cl)cc1)c1ccc(Cl)cc1Cl)n1ccnc1 | – | inactive: -1.15% [at 42.5 µM]
CC(COc1ccccc1)N(CCCl)Cc1ccccc1 (configuration not stated) | inconclusive: 13.8 µM and active: 13.2 µM and active: 7.22 µM | –

Target: D(2) dopamine receptor (Homo sapiens) (UniProt P14416)
Test: Dopamine D2 receptor (DRD2) small molecule antagonists, cell-based qHTS assay (AID 1963595; active = well fitted inhibition curve with a large enough effect in the signal ratio in the repeat runs, with a control signal flat; inconclusive = weak or mixed curves, or effect the other way; the % refers to the signal ratio)
Details: HEK293-DRD2 cAMP HTRF antagonist mode; activity change, negative = inhibition: at 92.4 µM (top of the series) unless noted
Method in brief: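 Human DRD2 antagonist qHTS measuring cAMP by HTRF. The cells are exposed to compound for 10 min, then to NKH477 (200 nM) and quinpirole (12 nM) for 30 min at RT, with Ro20-1724 (0.1 mM) present throughout.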

Structure (SMILES) | activity change, negative = inhibition | Potency
CC(=O)Oc1ccc(C(=C2CCCCC2)c2ccc(OC(C)=O)cc2)cc1 | inactive: 2.69% [at 42.5 µM] | –
C#CCN(C)CCCOc1ccc(Cl)cc1Cl | inconclusive: -0.479% [at 42.5 µM] | –
CCN(CC)CCNC(=O)c1cc(Br)c(N)cc1OC | – | active: 0.376 µM
c1cc(CN2CCCCC2)cc(OCCCNc2nc3ccccc3s2)c1 | – | inconclusive: 33.5 µM [inhibitor, single point]
